Drawing on PMC11844288, this text covers binding for one substance.

Sequences of proteins named here, by UniProt entry; tags and fusion partners are left off.
UniProt Q99459: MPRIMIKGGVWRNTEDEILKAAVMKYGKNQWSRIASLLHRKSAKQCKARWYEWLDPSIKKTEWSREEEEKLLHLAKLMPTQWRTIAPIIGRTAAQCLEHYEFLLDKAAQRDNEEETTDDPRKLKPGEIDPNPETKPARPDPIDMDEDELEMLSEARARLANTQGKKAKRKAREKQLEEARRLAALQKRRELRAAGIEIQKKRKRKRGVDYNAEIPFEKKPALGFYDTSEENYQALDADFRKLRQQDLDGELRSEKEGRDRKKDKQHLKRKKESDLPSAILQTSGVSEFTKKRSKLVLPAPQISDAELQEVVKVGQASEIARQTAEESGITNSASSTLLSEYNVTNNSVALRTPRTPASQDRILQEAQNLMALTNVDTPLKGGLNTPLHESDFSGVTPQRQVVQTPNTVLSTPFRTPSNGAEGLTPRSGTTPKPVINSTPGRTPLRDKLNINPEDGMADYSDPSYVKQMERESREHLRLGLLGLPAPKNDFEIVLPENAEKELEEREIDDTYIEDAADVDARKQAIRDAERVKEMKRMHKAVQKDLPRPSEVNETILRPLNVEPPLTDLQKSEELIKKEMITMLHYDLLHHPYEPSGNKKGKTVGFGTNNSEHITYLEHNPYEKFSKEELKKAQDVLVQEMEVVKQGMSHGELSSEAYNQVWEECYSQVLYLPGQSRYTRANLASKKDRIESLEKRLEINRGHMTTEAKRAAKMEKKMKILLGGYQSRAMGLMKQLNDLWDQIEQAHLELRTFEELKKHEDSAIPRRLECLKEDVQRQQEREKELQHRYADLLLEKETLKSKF
UniProt P28482: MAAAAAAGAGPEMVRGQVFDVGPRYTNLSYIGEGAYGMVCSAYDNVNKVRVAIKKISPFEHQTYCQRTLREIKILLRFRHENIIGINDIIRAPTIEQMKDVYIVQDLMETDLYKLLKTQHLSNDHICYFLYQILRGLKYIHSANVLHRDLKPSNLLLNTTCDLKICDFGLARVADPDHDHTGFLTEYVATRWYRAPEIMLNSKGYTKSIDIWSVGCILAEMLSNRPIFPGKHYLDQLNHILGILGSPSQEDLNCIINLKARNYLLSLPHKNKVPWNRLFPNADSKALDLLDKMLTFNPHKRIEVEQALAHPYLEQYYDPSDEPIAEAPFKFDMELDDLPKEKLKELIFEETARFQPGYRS

The target in the assay is Cell division cycle 5-like protein (CDC5L) (human) (UniProt Q99459). Briefly: affinity purification with mass spectrometry; CO-IP of CDC5L from GC cell proteins on protein A/G-agarose beads, immunoprecipitated proteins analysed by mass spectrometry.

These are yes or no findings as the source states them, for the method shown. Binding seen in cells or lysates may run through a third protein. These calls come from enrichment with a bait or labelling near it, and not all partners need be listed.

For the substance MAPK1 (from UniProt P28482 1-360), the binding entry was “binds”.
